Source: patent publication US20220242950A1
These are yes or no findings as the source states them, for the method shown. Some binding calls cover weakened binding; strength is not graded here.

Legend:
[1] = molecular target: pig IL1RAP (pig (Sus scrofa)); assay: indirect ELISA on coated IL1RAP, goat anti-human antibody-alkaline phosphatase, absorbance at 405 nm
[2] = molecular target: recombinant mf IL1RAP aa21-367 (cynomolgus monkey (Macaca fascicularis)); assay: as above
[3] = molecular target: pig IL1RAP (pig (Sus scrofa)); assay: cross reactivity ELISA
[4] = molecular target: recombinant mf IL1RAP aa21-367 (cynomolgus monkey (Macaca fascicularis)); assay: cross reactivity ELISA
[5] = molecular target: recombinant mf IL1RAP aa21-367 (cynomolgus monkey (Macaca fascicularis)); assay: conclusion of Example 10

Measured: binding

B1: h48D2 VH5.GL:VL4 (antibody, human IgG1, kappa, L234A L235A, V domains shown)
VH: QEQLEESGGGLVKPGGTLSLTCTVSGPSLSHFDITWIRQPPGKGLEWIGTISPGVSTYYASWAKSRVTISVDTSLNTVSLKLSSVTAADTATYFCARGGVGSSWKAFDLWGPGTLVTISS
VL: ELVMTQSPSSVSASVGDRVTITCQASESISTALAWYQQKPGKAPKLLIYKASTLPSGVPSRFSGSGSGTDFTLTINSLQPEDFATYYCQQGFSSGNVHNAFGGGTKVEIKR
not listed: [5]
binds: all other assays above

B2: chimeric 48D2 (antibody, V domains shown, not shown: a dimerising Fc or GST)
VH: QEQLEESGGGLVKPGGSLTLTCTVSGPSLSHFDITWVRQAPGSGLEWIGTISPGVSTYYASWAKSRSTITSNTNLNTVTLKMTSLTAADTATYFCARGGVGSSWKAFDLWGPGTLVTISS
VL: APVLTQTPASVEVAVGGTVTIKCQASESISTALAWYQQKPGQPPKLLIYKASTLPSGVSSRFKGSGSGTEFALTISDLECDDAATYYCQQGFSSGNVHNAFGGGTEVVVKR
binds: all assays above
